Laboratory results as given in paper PMC10465233, “Lys-urea-Aad, Lys-urea-Cmc and Lys-urea-Cms as potential pharmacophores for the design of PSMA-targeted radioligands to reduce off-target uptake in kidneys and salivary glands” (Theranostics, 2023).
Where two headings read alike, the source gives them in different places.

What was measured:
[1] = parameters: method as in earlier work; conditions: cited from earlier work
[2] = tested on: LNCaP tumors; parameters: method as in earlier work; conditions: cited from earlier work
[3] = Radiation dosimetry for major organs of 25-g mice (OLINDA, MOBY phantom); type: in vivo, mouse
Experimental: Internal dosimetry estimates were calculated using the organ level internal dose assessment (OLINDA) software v.2.2 following our previously published procedures. These estimates were performed for the mouse using the 25g MOBY phantom, and for the tumors using the previously reported unit density sphere model. Both the phantom and the sphere model are available in OLINDA and require the input of the total number of decays normalized by injected activity in units of MBq×h/MBq for each of the source organ/tumor.
The biodistribution data (available in Table S5-S7) were used to determine the kinetics input values required by OLINDA. First, each of the values was decayed to its corresponding time point (the values on the table are shown at injection time). Then the different time-points of the uptake data (%ID/g) for each organ were fitted to both mono-exponential (%ID/g = ae^⎯bt) and bi-exponential (%ID/g = ae^⎯bt + ce^⎯dt) functions using in-house software developed in Python. The best fit was selected based on maximizing the coefficient of determination (R^2) of the fit and minimizing the residuals. The areas under the curves were analytically calculated based on the parameters obtained from the best fit of each organ and this provided the kinetic input values required by OLINDA.
In the mouse case, the adrenals, blood, fat, and muscle are not modeled in the phantom. These organs were grouped together and included in what OLINDA calls the remainder of the body. Lastly, the numbers of decays in the tumors were also calculated based on the biodistribution data of the mice and the values were inputted into the sphere model available in OLINDA.

[4] = tested on: LNCaP tumors; assay: Radiation dosimetry, unit density sphere model for LNCaP tumors (OLINDA); type: in vivo, mouse
[5] = target organ Remainder of the body

O=C([O-])CN1CCN(CC(=O)[O-])CCN(CC(=O)NCC2CCC(C(=O)NC(Cc3c4ccccc4cc4ccccc34)C(=O)NCCCCC(NC(=O)NC(CCCC(=O)O)C(=O)O)C(=O)O)CC2)CCN(CC(=O)[O-])CC1.[177Lu+3] (stereo not shown) [[^177Lu]Lu-HTK03149]
Organ dose ([1]; target organ Brain): 2.35E+00 mGy/MBq
Organ dose ([1]; target organ Heart): 9.38E+00 mGy/MBq
Organ dose ([1]; target organ Kidneys): 6.72E+01 mGy/MBq
Organ dose ([1]; target organ Large intestine): 1.59E+01 mGy/MBq
Organ dose ([1]; target organ Liver): 2.09E+01 mGy/MBq
Organ dose ([1]; target organ Lungs): 1.62E+01 mGy/MBq
Organ dose ([1]; target organ Pancreas): 7.72E+00 mGy/MBq
Organ dose [1, 5]: 8.95E+00 mGy/MBq
Organ dose ([1]; target organ Skeleton): 7.45E+00 mGy/MBq
Organ dose ([1]; target organ Small intestine): 1.57E+01 mGy/MBq
Organ dose ([1]; target organ Spleen): 1.89E+01 mGy/MBq
Organ dose ([1]; target organ Stomach): 1.57E+01 mGy/MBq
Organ dose ([1]; target organ Testes): 8.72E+00 mGy/MBq
Organ dose ([1]; target organ Thyroid): 1.29E+01 mGy/MBq
Organ dose ([1]; target organ Urinary bladder): 5.84E+02 mGy/MBq
Radiation dose to LNCaP tumor ([2]; sphere/tumor volume 0.01 mL): 7.53E+04 mGy/MBq
Radiation dose to LNCaP tumor ([2]; sphere/tumor volume 0.1 mL): 7.87E+03 mGy/MBq
Radiation dose to LNCaP tumor ([2]; sphere/tumor volume 0.5 mL): 1.60E+03 mGy/MBq
Radiation dose to LNCaP tumor ([2]; sphere/tumor volume 1 mL): 8.06E+02 mGy/MBq
Radiation dose to LNCaP tumor ([2]; sphere/tumor volume 2 mL): 4.05E+02 mGy/MBq
Radiation dose to LNCaP tumor ([2]; sphere/tumor volume 4 mL): 2.03E+02 mGy/MBq
Radiation dose to LNCaP tumor ([2]; sphere/tumor volume 6 mL): 1.36E+02 mGy/MBq
Radiation dose to LNCaP tumor ([2]; sphere/tumor volume 8 mL): 1.02E+02 mGy/MBq
Radiation dose to LNCaP tumor ([2]; sphere/tumor volume 10 mL): 8.17E+01 mGy/MBq
Radiation dose to LNCaP tumor ([2]; sphere/tumor volume 20 mL): 4.10E+01 mGy/MBq
Radiation dose to LNCaP tumor ([2]; sphere/tumor volume 40 mL): 2.06E+01 mGy/MBq
Radiation dose to LNCaP tumor ([2]; sphere/tumor volume 60 mL): 1.37E+01 mGy/MBq
Radiation dose to LNCaP tumor ([2]; sphere/tumor volume 80 mL): 1.03E+01 mGy/MBq
Radiation dose to LNCaP tumor ([2]; sphere/tumor volume 100 mL): 8.28E+00 mGy/MBq
Radiation dose to LNCaP tumor ([2]; sphere/tumor volume 300 mL): 2.79E+00 mGy/MBq
Radiation dose to LNCaP tumor ([2]; sphere/tumor volume 400 mL): 2.10E+00 mGy/MBq
Radiation dose to LNCaP tumor ([2]; sphere/tumor volume 500 mL): 1.68E+00 mGy/MBq
Radiation dose to LNCaP tumor ([2]; sphere/tumor volume 600 mL): 1.40E+00 mGy/MBq
Radiation dose to LNCaP tumor ([2]; sphere/tumor volume 1000 mL): 8.48E-01 mGy/MBq
Radiation dose to LNCaP tumor ([2]; sphere/tumor volume 2000 mL): 4.29E-01 mGy/MBq
Radiation dose to LNCaP tumor ([2]; sphere/tumor volume 3000 mL): 2.88E-01 mGy/MBq
Radiation dose to LNCaP tumor ([2]; sphere/tumor volume 4000 mL): 2.17E-01 mGy/MBq
Radiation dose to LNCaP tumor ([2]; sphere/tumor volume 5000 mL): 1.75E-01 mGy/MBq
Radiation dose to LNCaP tumor ([2]; sphere/tumor volume 6000 mL): 1.46E-01 mGy/MBq

COc1ccc(CCCC(=O)NCC(=O)N[C@@H](CCCCNC(=O)CN2CCN(CC(=O)[O-])CCN(CC(=O)[O-])CCN(CC(=O)[O-])CC2)C(=O)NC[C@H]2CC[C@H](C(=O)N[C@@H](Cc3c4ccccc4cc4ccccc34)C(=O)NCCCC[C@H](NC(=O)N[C@@H](CCCC(=O)O)C(=O)O)C(=O)O)CC2)cc1.[177Lu+3] [[^177Lu]Lu-HTK03170]
Kidney radiation dose relative to [^177Lu]Lu-HTK03149 ([3]; mouse, in vivo): 5.6 fold
Kidney radiation dose relative to [^177Lu]Lu-PSMA-617 ([3]; mouse, in vivo): 1.7 fold
Radiation dose to various organs relative to [^177Lu]Lu-HTK03149 ([3]; mouse, in vivo): 1.4- to 8.4 fold
Radiation dose to various organs relative to [^177Lu]Lu-PSMA-617 ([3]; mouse, in vivo): 1.4- to 26.5 fold
Skeleton absorbed dose relative to [^177Lu]Lu-PSMA-617 ([3]; skeleton as surrogate for bone marrow): 23.4 fold
Organ dose ([3]; target organ Brain): 1.98E+01 mGy/MBq
Organ dose ([3]; target organ Heart): 4.55E+01 mGy/MBq
Organ dose ([3]; target organ Kidneys): 3.74E+02 mGy/MBq
Organ dose ([3]; target organ Large intestine): 3.27E+01 mGy/MBq
Organ dose ([3]; target organ Liver): 7.50E+01 mGy/MBq
Organ dose ([3]; target organ Lungs): 6.90E+01 mGy/MBq
Organ dose ([3]; target organ Pancreas): 3.01E+01 mGy/MBq
Organ dose [3, 5]: 3.18E+01 mGy/MBq
Organ dose ([3]; target organ Skeleton): 2.93E+01 mGy/MBq
Organ dose ([3]; target organ Small intestine): 3.21E+01 mGy/MBq
Organ dose ([3]; target organ Spleen): 9.14E+01 mGy/MBq
Organ dose ([3]; target organ Stomach): 4.00E+01 mGy/MBq
Organ dose ([3]; target organ Testes): 6.22E+01 mGy/MBq
Organ dose ([3]; target organ Thyroid): 4.31E+01 mGy/MBq
Organ dose ([3]; target organ Urinary bladder): 8.08E+02 mGy/MBq
Radiation dose to LNCaP tumor xenografts relative to [^177Lu]Lu-HTK03149 ([4]; mouse, in vivo): 6.7 fold
Radiation dose to LNCaP tumor xenografts relative to [^177Lu]Lu-PSMA-617 ([4]; mouse, in vivo): 16.4 fold
Radiation dose to LNCaP tumor ([4]; sphere/tumor volume 0.01 mL): 5.02E+05 mGy/MBq
Radiation dose to LNCaP tumor ([4]; sphere/tumor volume 0.1 mL): 5.25E+04 mGy/MBq
Radiation dose to LNCaP tumor ([4]; sphere/tumor volume 0.5 mL): 1.07E+04 mGy/MBq
Radiation dose to LNCaP tumor ([4]; sphere/tumor volume 1 mL): 5.38E+03 mGy/MBq
Radiation dose to LNCaP tumor ([4]; sphere/tumor volume 2 mL): 2.70E+03 mGy/MBq
Radiation dose to LNCaP tumor ([4]; sphere/tumor volume 4 mL): 1.36E+03 mGy/MBq
Radiation dose to LNCaP tumor ([4]; sphere/tumor volume 6 mL): 9.06E+02 mGy/MBq
Radiation dose to LNCaP tumor ([4]; sphere/tumor volume 8 mL): 6.80E+02 mGy/MBq
Radiation dose to LNCaP tumor ([4]; sphere/tumor volume 10 mL): 5.45E+02 mGy/MBq
Radiation dose to LNCaP tumor ([4]; sphere/tumor volume 20 mL): 2.74E+02 mGy/MBq
Radiation dose to LNCaP tumor ([4]; sphere/tumor volume 40 mL): 1.37E+02 mGy/MBq
Radiation dose to LNCaP tumor ([4]; sphere/tumor volume 60 mL): 9.17E+01 mGy/MBq
Radiation dose to LNCaP tumor ([4]; sphere/tumor volume 80 mL): 6.90E+01 mGy/MBq
Radiation dose to LNCaP tumor ([4]; sphere/tumor volume 100 mL): 5.52E+01 mGy/MBq
Radiation dose to LNCaP tumor ([4]; sphere/tumor volume 300 mL): 1.86E+01 mGy/MBq
Radiation dose to LNCaP tumor ([4]; sphere/tumor volume 400 mL): 1.40E+01 mGy/MBq
Radiation dose to LNCaP tumor ([4]; sphere/tumor volume 500 mL): 1.12E+01 mGy/MBq
Radiation dose to LNCaP tumor ([4]; sphere/tumor volume 600 mL): 9.37E+00 mGy/MBq
Radiation dose to LNCaP tumor ([4]; sphere/tumor volume 1000 mL): 5.66E+00 mGy/MBq
Radiation dose to LNCaP tumor ([4]; sphere/tumor volume 2000 mL): 2.87E+00 mGy/MBq
Radiation dose to LNCaP tumor ([4]; sphere/tumor volume 3000 mL): 1.92E+00 mGy/MBq
Radiation dose to LNCaP tumor ([4]; sphere/tumor volume 4000 mL): 1.45E+00 mGy/MBq
Radiation dose to LNCaP tumor ([4]; sphere/tumor volume 5000 mL): 1.17E+00 mGy/MBq
Radiation dose to LNCaP tumor ([4]; sphere/tumor volume 6000 mL): 9.76E-01 mGy/MBq
